Source: PubChem BioAssay AID504834 (National Center for Advancing Translational Sciences (NCATS), 2011)
Screen size: about 320,000 compounds; about 22,000 (6.9%) were called active. The inconclusive results got no clear call from the source; some entries with a clear call stand among them for comparison. The call rests on the fitted dose curve; in most records, active means well fitted inhibition curve with a large enough effect; inconclusive means small, poorly fitted or top-dose-only effect, or another doubt; inactive means no such curve, though single readings can be large or run the other way. Potencies beside an inconclusive call are fits to weak or partial responses and may not hold up.

assay: Primary qHTS for delayed death inhibitors of the malarial parasite plastid, 96 hour incubation; details: P. falciparum luciferase reporter growth; series mostly up to 28.7 µM
Outline: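 Parasite growth measured via integrated firefly luciferase reporter in P. falciparum. Infected erythrocytes at 2% hematocrit, 0.05% parasitemia final were treated 96 hours at 37 C under 5% CO2, and luminescence was read.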
Potency means the concentration at half of the fitted maximal effect.

Row | Compound | Potency
1 | Cn1c(Oc2ccc(F)cc2)c(C=O)c2ccccc21 | inconclusive: 5.22 µM [inhibitor, partial curve, poor fit]
2 | CCCCn1c(SCc2cc(=O)n3ccsc3n2)nc2cc(C(=O)OC)ccc2c1=O | inconclusive: 16.5 µM [inhibitor, partial curve, poor fit]
3 | CCN(CC(=O)Nc1ccccc1C(F)(F)F)C(=O)c1ccc(=O)n(Cc2ccccc2)n1 | inconclusive: 13.1 µM [inhibitor, partial curve, poor fit]
4 | CCc1nc(Nc2ccc3c(c2)OCO3)c2oc3ccccc3c2n1 | inconclusive: 18.5 µM [inhibitor, single point]
5 | COc1ccccc1CNC(=O)c1ccc(CS(=O)(=O)c2ccccc2)o1 | inconclusive: 18.5 µM [inhibitor, single point]
6 | COc1cc(/C=C/c2ccc3cccc(O)c3n2)ccc1O | inconclusive: 18.5 µM [inhibitor, single point]
7 | O=C(O)CNC(=O)/C(=C\c1ccc2c(c1)OCO2)NC(=O)c1ccc(Br)cc1 | inconclusive: 18.5 µM [inhibitor, single point]
8 | O=c1cc(-c2ccc([N+](=O)[O-])cc2)c2cc3c(cc2[nH]1)OCCO3 | inconclusive: 13.1 µM [inhibitor, partial curve, poor fit]
9 | O=C(Nc1ccc(F)c(Cl)c1)C1CCN(c2ncnc3c2nc2n3CCCCC2)CC1 | inconclusive: 11.7 µM [inhibitor, partial curve]
10 | Clc1ccc(C(c2ccccc2Cl)C(Cl)Cl)cc1 (stereo unspecified) | inconclusive: 6.75 µM [inhibitor, partial curve]
11 | CC(C)(C)C(=O)Nc1nc2c(s1)COc1ccccc1-2 | inconclusive: 10.4 µM [inhibitor, single point]
12 | CC(C)CCN1CCN(Cc2ccc(Sc3nncn3C)o2)CC1CCO (stereo unspecified) | inconclusive: 13.1 µM [inhibitor, single point]
13 | Cc1ccccc1OCC(=O)N(Cc1cccs1)C1CCS(=O)(=O)C1 (stereo unspecified) | inconclusive: 0.147 µM [inhibitor, full curve, poor fit]
14 | CCN1C(=O)c2cccc3c(S(=O)(=O)N(C(=O)c4cccnc4)c4ccc(OC)cc4)ccc1c23 | inconclusive: 14.7 µM [inhibitor, partial curve, poor fit]
15 | COc1ccc(C(CCN2CCN(c3ccccc3)CC2)c2c(OC)cc(OC)c3c(-c4ccccc4)cc(=O)oc23)cc1 (stereo unspecified) | active: 4.65 µM
16 | CCOc1ccc(-c2nn3c(-c4ccccc4)nnc3s2)cc1 | inconclusive: 2.62 µM [inhibitor, full curve, poor fit]

Sorted by molar mass (smallest number first): some entries from above.
Row | Compound | Potency
6 | COc1cc(/C=C/c2ccc3cccc(O)c3n2)ccc1O | inconclusive: 18.5 µM [inhibitor, single point]
4 | CCc1nc(Nc2ccc3c(c2)OCO3)c2oc3ccccc3c2n1 | inconclusive: 18.5 µM [inhibitor, single point]
3 | CCN(CC(=O)Nc1ccccc1C(F)(F)F)C(=O)c1ccc(=O)n(Cc2ccccc2)n1 | inconclusive: 13.1 µM [inhibitor, partial curve, poor fit]
